In PubChem BioAssay AID2417 (National Center for Advancing Translational Sciences (NCATS), 2010):
Screen size: about 140,000 compounds; about 4,300 (3.1%) were called active. Inconclusive results, whose numbers are uncertain, are shown with a selection of clear calls.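 How the source made its calls: active means readout at or below -70, meaning at least 70% loss of cells showing the perinucleolar compartment, a nuclear body marking cancer cells; inconclusive means readout between -30 and a set limit; inactive means the rest.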

assay: High Content Assay for Compounds that inhibit the Assembly of the Perinucleolar Compartment; conditions: PC3M PTB-GFP, PNC prevalence imaging, 16 h; at 10 µM; stronger effect = lower value;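 further: plate controls were DMSO wells for no effect and camptothecin positive control wells for full effect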
Method in brief: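 Read-out is percentage of cells bearing a perinucleolar compartment, from automated 20x imaging of fixed, Hoechst-stained PC3M PTB-GFP cells. Cells were seeded 4 h, then exposed 16 h to compound (23 nl of library stock) in duplicate plates.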

Row | SMILES | activity change (PNC), negative = inhibition
1 | COc1ccc(C(=O)NC(=O)N2CCCCC2)cc1 | inconclusive: -61.9%
2 | COC(=O)c1ncn(C2OC(COC(C)=O)C(OC(C)=O)C2OC(C)=O)n1 (stereo unspecified) | inconclusive: -50.5%
3 | Cc1c(C(=O)Nc2ccc(F)cc2)oc2ccc(S(=O)(=O)N3CC(C)CC(C)C3)cc12 (stereo unspecified) | inconclusive: -39.1%
4 | COc1cc(-c2nnc(SCC3(c4ccccc4)OCCO3)o2)cc(OC)c1OC | inconclusive: -43.5%
5 | c1ccc(Cc2nnc(N3CCOCC3)c3ccccc23)cc1 | inconclusive: -42%
6 | O=C(NC1CCCCC1)C12CC3CC(CC(Cl)(C3)C1)C2 | inconclusive: -30.7%
7 | COCCn1nnnc1CN(Cc1cccnc1)Cc1cc2cc(OC)ccc2[nH]c1=O | inconclusive: -55.9%
8 | CCCCCNS(=O)(=O)c1cc(C)ccc1OC | inactive: -10.3%
9 | COc1ccc2c(c1)nc(SCC(=O)c1ccc(Br)s1)n2C | inactive: -23.7%
10 | CC(/C=N/NC(=O)c1ccc(Br)cc1)=C\c1ccccc1 | inconclusive: -74.8%
11 | O=C(CCN1C(=O)c2ccccc2C1=O)Oc1ccc2ccccc2c1 | inconclusive: -50.9%
12 | Cc1ccc(Nc2nc3c(c(=O)[nH]c(=O)n3C)n2Cc2ccc(F)cc2)cc1 | inconclusive: -30.3%
13 | CN(CCOC(=O)c1cccc(Br)c1)C(C)(C)C | inconclusive: -43.4%
14 | CCn1c(=O)n(CCc2ccccc2)c(=O)c2c3c(sc21)CCCC3 | inactive: 0.691%
15 | C=CCn1c(C)cc(C(=O)CSc2ccc(NC(C)=O)cc2)c1C | inconclusive: -30.6%
16 | CCOC(=O)c1c(NC(=O)CSc2ncccn2)sc2c1CCN(Cc1ccccc1)C2 | inconclusive: -78.5%
17 | CC(=O)N1CCCc2cc(S(=O)(=O)N3CCC(C)CC3)ccc21 | inactive: 23.6%
18 | CCOc1ncccc1C(=O)NCc1ccc(C)cc1 | inconclusive: -36.9%
19 | COc1cc(-c2cccs2)cc(=O)c2c(C)oc(C)c12 | active: -96.2%
20 | Cc1ccc(N(C)C(=O)C2CCN(S(=O)(=O)c3ccc4c(c3)oc(=O)n4C)CC2)cc1 | inconclusive: -36.6%
21 | CN(C)/C(CN1CCOCC1)=C1\N=C(c2ccccc2)OC1=O | inactive: 49.3%
22 | CCN(CC)c1ccc(CN2CCCCCC2)cc1 | inactive: 16.1%
23 | COc1ccc(N/N=C(\C=N\O)C(=O)c2ccc(OC)cc2)cc1 | active: -112%

Row | SMILES | activity change (PNC), negative = inhibition
24 | CNC(=O)CSCc1c(F)cccc1Cl | inactive: -8.93%
25 | Cc1nc(SCC(=O)CC(=O)OC(C)C)c(C#N)c(C)c1C | inconclusive: -30.4%
26 | CN(C)S(=O)(=O)c1ccc(N2CCCC2)c(C(=O)NCc2ccccc2)c1 | inconclusive: -59.5%
27 | Cc1nn(-c2ccccc2)c(NC(=O)c2cccs2)c(-c2ccccc2)c1=O | inconclusive: -64.5%
28 | CCOC(=O)c1[nH]nc2c1C(=O)N(Cc1ccccc1)C2=O | inactive: -25.8%
29 | CCn1nc(C(=O)OCc2c(C)noc2C)c2ccccc2c1=O | inconclusive: -33.2%
30 | N/C(CC(=O)Nc1cccc(C(F)(F)F)c1)=N/O | inconclusive: -36.8%
31 | O=S(=O)(NC1CC1)c1ccc(S(=O)(=O)N2CCCc3ccccc32)cc1 | inconclusive: -52.1%
32 | Clc1ccc(OCc2cc(-c3ccccc3)no2)cc1Cl | inconclusive: -46.7%
33 | COc1ccc(C2CCCN2C(=O)Nc2cccc(C(C)=O)c2)cc1OC (stereo unspecified) | inconclusive: -78.7%
34 | C=C(C)CC1Nc2ccccc2NC1CC(=C)C (stereo unspecified) | inactive: 27.5%
35 | CCn1c(SCC(=O)N/N=C/c2ccc(O)c(OC)c2)nc2ccccc21 | inactive: 11.9%
36 | O=C(COC(=O)/C=C/c1cccs1)Nc1ccc2ccccc2c1 | inconclusive: -36.7%
37 | CC(C)CN(CC(C)C)CC(O)COc1ccc([N+](=O)[O-])cc1 (stereo unspecified) | inactive: -1.27%
38 | CSc1ccc(/C=N/NC(=O)CN2CCN(Cc3ccc(C)cc3)CC2)cc1 | inconclusive: -33.6%
39 | COc1cc(/C=N/NC(=O)CCN2CCN(C(c3ccccc3)c3ccccc3)CC2)ccc1O | inconclusive: -61.5%
40 | CCOC(=O)c1c(C)[nH]c(C2=NNC(=Nc3ccccc3OC)SC2)c1C | inactive: -10.6%
41 | COC(C(=O)NCc1ccccc1C)c1ccccc1 (stereo unspecified) | inconclusive: -68.8%
42 | Cn1c(C(=O)NCc2ccco2)cc2c(=O)[nH]c3ccccc3c21 | inconclusive: -38.4%
43 | CC(C)N1C(=O)S/C(=C/c2ccc(Sc3nc4ccccc4[nH]3)o2)C1=O | inconclusive: -38.6%
44 | COc1ccccc1OCCCOc1ccc([N+](=O)[O-])cc1Cl | inactive: 42.1%
45 | COc1ccc(C(=O)Nc2ccc(C)cc2C(=O)c2ccccc2)cc1 | inconclusive: -38.9%
46 | CC1CCCN(C(=O)c2cc(F)c(F)cc2Cl)C1 (stereo unspecified) | inconclusive: -72.3%

Nos. 14–34, reprinted for reference:
Row | SMILES | activity change (PNC), negative = inhibition
14 | CCn1c(=O)n(CCc2ccccc2)c(=O)c2c3c(sc21)CCCC3 | inactive: 0.691%
15 | C=CCn1c(C)cc(C(=O)CSc2ccc(NC(C)=O)cc2)c1C | inconclusive: -30.6%
16 | CCOC(=O)c1c(NC(=O)CSc2ncccn2)sc2c1CCN(Cc1ccccc1)C2 | inconclusive: -78.5%
17 | CC(=O)N1CCCc2cc(S(=O)(=O)N3CCC(C)CC3)ccc21 | inactive: 23.6%
18 | CCOc1ncccc1C(=O)NCc1ccc(C)cc1 | inconclusive: -36.9%
19 | COc1cc(-c2cccs2)cc(=O)c2c(C)oc(C)c12 | active: -96.2%
20 | Cc1ccc(N(C)C(=O)C2CCN(S(=O)(=O)c3ccc4c(c3)oc(=O)n4C)CC2)cc1 | inconclusive: -36.6%
21 | CN(C)/C(CN1CCOCC1)=C1\N=C(c2ccccc2)OC1=O | inactive: 49.3%
22 | CCN(CC)c1ccc(CN2CCCCCC2)cc1 | inactive: 16.1%
23 | COc1ccc(N/N=C(\C=N\O)C(=O)c2ccc(OC)cc2)cc1 | active: -112%
24 | CNC(=O)CSCc1c(F)cccc1Cl | inactive: -8.93%
25 | Cc1nc(SCC(=O)CC(=O)OC(C)C)c(C#N)c(C)c1C | inconclusive: -30.4%
26 | CN(C)S(=O)(=O)c1ccc(N2CCCC2)c(C(=O)NCc2ccccc2)c1 | inconclusive: -59.5%
27 | Cc1nn(-c2ccccc2)c(NC(=O)c2cccs2)c(-c2ccccc2)c1=O | inconclusive: -64.5%
28 | CCOC(=O)c1[nH]nc2c1C(=O)N(Cc1ccccc1)C2=O | inactive: -25.8%
29 | CCn1nc(C(=O)OCc2c(C)noc2C)c2ccccc2c1=O | inconclusive: -33.2%
30 | N/C(CC(=O)Nc1cccc(C(F)(F)F)c1)=N/O | inconclusive: -36.8%
31 | O=S(=O)(NC1CC1)c1ccc(S(=O)(=O)N2CCCc3ccccc32)cc1 | inconclusive: -52.1%
32 | Clc1ccc(OCc2cc(-c3ccccc3)no2)cc1Cl | inconclusive: -46.7%
33 | COc1ccc(C2CCCN2C(=O)Nc2cccc(C(C)=O)c2)cc1OC (stereo unspecified) | inconclusive: -78.7%
34 | C=C(C)CC1Nc2ccccc2NC1CC(=C)C (stereo unspecified) | inactive: 27.5%

The list goes on:

Row | SMILES | activity change (PNC), negative = inhibition
47 | O=C(Nc1ncnc2sc3c(c12)CCCCC3)c1ccco1 | active: -124%
48 | O=C(COC(=O)C1CCCN1C(=O)C12CC3CC(CC(C3)C1)C2)c1ccc(Br)cc1 (stereo unspecified) | inconclusive: -76.6%
49 | Cc1cccc(N(C(=O)Cn2nnc3ccccc32)C(C(=O)NC(C)(C)C)c2ccsc2)c1 (stereo unspecified) | active: -94%
50 | N#Cc1cnc(SCCc2ccccc2)nc1N | active: -82.6%
51 | CCOC(=O)C1CCN(C(c2cc(OC)c(OC)c(OC)c2)c2sc3nc(C)nn3c2O)CC1 (stereo unspecified) | inconclusive: -55.2%
52 | CC1CC1C(=O)OCC(=O)NC(=O)NCc1ccco1 (stereo unspecified) | active: -87.5%
53 | Cc1ccc(S(=O)(=O)N(C)c2ccccc2C(=O)NC2CCCC2)cc1 | inactive: -5.99%
54 | Cc1ccccc1OCc1nc(-c2ccc(NC(=O)c3ccc4c(c3)OCO4)cc2)no1 | inconclusive: -35.9%
55 | CCC(CC)COC(=O)C(C#N)c1nc2ccccc2nc1N1CCN(CC)CC1 (stereo unspecified) | inconclusive: -32.3%
56 | CCOCCCNC(=O)C(NC(=O)c1ccc(=O)[nH]c1)c1ccc(C)cc1 (stereo unspecified) | inconclusive: -32.5%
57 | Cn1c(CC(=O)Nc2ccc(F)cc2)c(Sc2ccccc2)c2ccccc21 | inconclusive: -32.8%
58 | COc1ccc(Cl)cc1NC(=O)c1cnc2sccn2c1=O | inconclusive: -63.9%
59 | CC(C)(C)OC(=O)N1CCC(C(=O)N2CCCCCC2)CC1 | inconclusive: -43.7%
60 | CC(C)Cc1nc(N2CCCCC2)c(C#N)c2c1CCC2 | inconclusive: -36.1%
61 | CC(C)(C)n1nnnc1CN1CCC(NC(=O)NC2CCCCC2)CC1 | inactive: -21.2%
62 | CCc1ccc(NC(=O)Cn2c(=O)oc3cc(S(=O)(=O)N4CCOCC4)ccc32)cc1 | inconclusive: -43.1%
63 | CCc1nc(C)ccc1OCC(=O)NCCCN(C)C | inconclusive: -50.5%
64 | CCCc1nc(N)c(C#N)c(-c2ccco2)c1CC | inconclusive: -37.6%
65 | CCN(CC)C(=O)c1n[nH]c(=O)c2ccccc12 | inactive: -24.7%
66 | Cc1ccc(S(=O)(=O)c2c(N)n(-c3ccccc3)c3nc4ccccc4nc23)cc1 | inconclusive: -35.6%
67 | CCC(C)(C)n1nnnc1C(C(C)C)N(CCN1CCOCC1)Cc1cc2cccc(C)c2[nH]c1=O (stereo unspecified) | inactive: -20.3%
68 | O=[N+]([O-])c1cc(C(F)(F)F)cc([N+](=O)[O-])c1NCc1cccnc1 | inconclusive: -57.5%
69 | O=C(c1nn2c(C(F)(F)F)cc(-c3ccco3)nc2c1Br)N1CCCc2ccccc21 | inconclusive: -42.4%

Row | SMILES | activity change (PNC), negative = inhibition
70 | COc1ccc2oc(=O)c(-c3csc(Nc4ccc(O)cc4)n3)cc2c1 | inactive: -2.66%
71 | COc1ccc(N(CC(=O)NCc2ccco2)S(=O)(=O)c2ccc(OC)c(OC)c2)cc1 | inactive: 5.19%
72 | Cc1cc(C(=O)CSc2nnc(NCc3ccccc3)s2)c(C)n1C | inactive: -18.4%
73 | Cn1c(=O)c2c3c(sc2n2cnnc12)CCC3 | inconclusive: -50.4%
74 | O=C(c1ccco1)N1CCN(C(c2cccs2)c2nnnn2C2CCCC2)CC1 (stereo unspecified) | inactive: 5.25%
75 | CCN(Cc1ccccc1)c1ccc(/C=N/NC(=O)c2cccc(S(=O)(=O)N3CCOCC3)c2)cc1 | inconclusive: -39.4%
76 | Cc1ccc(S(=O)(=O)NCCCCCC(=O)Nc2ccccc2)cc1 | inactive: 39.2%
77 | N#C/C(=C1\C(=O)Nc2c(Cl)cc(Cl)cc21)c1nnc2n1CCCCC2 | inconclusive: -49.1%
78 | Cc1ccc(S(=O)(=O)/C(C#N)=C/c2c(N3CCN(C)CC3)nc3c(C)cccn3c2=O)cc1 | inactive: 7.42%
79 | Cn1cc([N+](=O)[O-])c(C(=O)N(Cc2ccccc2)Cc2ccccc2)n1 | inactive: 17.1%
80 | COc1ccc(OC)c(S(=O)(=O)NCc2cccnc2)c1 | inconclusive: -66.5%
81 | Cc1ccc(-c2nc(NC(=O)c3nn(C)cc3[N+](=O)[O-])sc2C)cc1C | inconclusive: -55.2%
82 | CCOCCCNC(=O)CSc1ccccc1 | inconclusive: -30.3%
83 | Cc1ccccc1C(=O)N1CCN(c2nc(N3CCOCC3)nc(N3CCOCC3)n2)CC1 | inactive: 7.68%
84 | N#Cc1ccsc1NC(=O)CN1CCN(S(=O)(=O)c2ccccc2C(F)(F)F)CC1 | inconclusive: -52.9%
85 | O=C(O)CCN(CCC(=O)O)c1ccccc1 | inconclusive: -36.8%
86 | Nc1ccc(-c2cnc(-c3ccc(N)cc3)nc2)cc1 | active: -123%
87 | CNc1ccccc1C(C)(C)c1cc(-c2ccc(F)cc2)no1 | inconclusive: -44.8%
88 | Nc1ccc(S(=O)(=O)c2cccc(N)c2)cc1 | inactive: 4.45%
89 | O=C(NCCN1CCCCC1)Nc1ccccc1 | inconclusive: -35.1%
90 | CCOC(=O)CNC(=O)/C=C/c1c(Cl)cccc1Cl | active: -123%
91 | COc1cc(/C=N/NC(=O)c2cccnc2)ccc1OCC(=O)N1CCOCC1 | inconclusive: -47.6%
